These are yes or no findings as the source states them, for the method shown. Binding seen in cells or lysates may run through a third protein. Some results given as binding are weak or reduced against the parent protein; the word gives no strength. Tags and fused reporters may be left off the sequences shown.

Test [1] has as its target T1, FLAG-tagged Mon1a (mouse) (UniProt Q6PDG8).
T1 sequence: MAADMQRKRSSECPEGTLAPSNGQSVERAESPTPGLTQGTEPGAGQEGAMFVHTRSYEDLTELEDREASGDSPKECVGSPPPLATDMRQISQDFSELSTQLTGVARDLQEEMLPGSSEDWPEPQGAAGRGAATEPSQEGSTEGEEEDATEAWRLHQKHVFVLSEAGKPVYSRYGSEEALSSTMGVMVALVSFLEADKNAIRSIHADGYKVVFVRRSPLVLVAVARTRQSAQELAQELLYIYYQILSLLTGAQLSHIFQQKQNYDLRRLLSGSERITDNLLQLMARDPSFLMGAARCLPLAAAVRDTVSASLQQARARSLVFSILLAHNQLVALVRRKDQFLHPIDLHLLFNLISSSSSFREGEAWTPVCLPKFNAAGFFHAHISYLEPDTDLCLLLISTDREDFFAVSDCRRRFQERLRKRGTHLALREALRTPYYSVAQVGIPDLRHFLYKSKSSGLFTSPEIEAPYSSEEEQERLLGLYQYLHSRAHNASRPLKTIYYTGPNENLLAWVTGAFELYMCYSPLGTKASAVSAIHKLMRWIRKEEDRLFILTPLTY
The test can be described thus: co-IP.

In another test the target is T2, c-myc-Fcho2 (mouse) (UniProt Q3UQN2).
T2 sequence: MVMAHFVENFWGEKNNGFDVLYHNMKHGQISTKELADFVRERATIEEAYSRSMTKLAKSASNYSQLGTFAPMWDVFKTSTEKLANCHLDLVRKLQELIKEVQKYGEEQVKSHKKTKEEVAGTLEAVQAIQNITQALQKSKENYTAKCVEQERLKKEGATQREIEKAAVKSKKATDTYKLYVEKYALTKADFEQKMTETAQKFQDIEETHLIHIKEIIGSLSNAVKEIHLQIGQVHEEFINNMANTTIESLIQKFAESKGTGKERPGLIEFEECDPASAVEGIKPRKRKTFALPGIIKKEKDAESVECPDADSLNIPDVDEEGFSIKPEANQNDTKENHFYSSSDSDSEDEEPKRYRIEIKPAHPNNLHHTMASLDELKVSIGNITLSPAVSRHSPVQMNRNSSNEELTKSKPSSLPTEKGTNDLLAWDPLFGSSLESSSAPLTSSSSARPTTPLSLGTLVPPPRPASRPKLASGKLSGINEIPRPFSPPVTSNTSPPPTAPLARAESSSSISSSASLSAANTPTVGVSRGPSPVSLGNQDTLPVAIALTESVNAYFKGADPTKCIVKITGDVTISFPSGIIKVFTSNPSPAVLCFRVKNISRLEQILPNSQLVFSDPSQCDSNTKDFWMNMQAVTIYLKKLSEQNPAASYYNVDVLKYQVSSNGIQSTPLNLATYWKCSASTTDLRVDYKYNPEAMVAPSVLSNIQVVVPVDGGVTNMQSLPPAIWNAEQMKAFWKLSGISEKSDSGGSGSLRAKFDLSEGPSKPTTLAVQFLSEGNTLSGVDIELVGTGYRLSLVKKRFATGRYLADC
The test can be described thus: co-IP.

B1: FLAG-tagged Mon1a (protein, UniProt Q6PDG8 1-556)
chain: T1 sequence
For the molecule B1, in test [1], the binding entry was “binds”.

B2: endogenous Mon1a (protein, UniProt Q6PDG8 1-556)
chain: T1 sequence
As to B2, in the test with c-myc-Fcho2 (mouse), the binding result is listed as “binds”.

B3: endogenous Fcho2 (protein, UniProt Q3UQN2 1-809)
chain: T2 sequence
Take B3: the binding result in test [1] was “binds”.

The record behind these values is article doi:10.1101/2023.07.06.547837.
